The index is printed as in the source, without its formula. A value given as a limit tells only on which side of the number the result lay.

For series [1], the system named is P. falciparum chloroquine resistant (W2, IndoChina) strain. Nature of the series: In vitro antimalarial assay (SYBR green), W2 strain. It is filed as cell-based, Plasmodium falciparum. Conditions: Selectivity index.
Series [2] deals with P. falciparum chloroquine sensitive (D6, Sierra Leone) strain. Nature of the series: In vitro antimalarial assay (SYBR green), D6 strain. The format is cell-based, Plasmodium falciparum. Conditions: Selectivity index.

For the compound `O=C1C=CC(=O)c2ccccc21` [1,4-NQ, 1,4-napthoquinone], the “SI W2” value in series [1] stood at 2.4.
Regarding `CN(C)CCC(=O)c1ccccc1` [3-DAP, 3-dimethylaminopropiophenone], the “SI D6” value in series [2] is recorded as over 1. In addition, the “SI W2” value in series [1] was over 1.

For the origin of these results see article PMC3828397, “Characterization of PfTrxR inhibitors using antimalarial assays and in silico techniques” (Chemistry Central Journal, 2013).
